Results reported in patent publication US20200299384A1.
No constants are given. Whether binding was seen depends on the method and setting. Some results given as binding are weak or reduced against the parent protein; the word gives no strength.

Amino acid sequences for entries named in this document (tags omitted). Residues count along the entry.
UniProt P07766, residues 23-207: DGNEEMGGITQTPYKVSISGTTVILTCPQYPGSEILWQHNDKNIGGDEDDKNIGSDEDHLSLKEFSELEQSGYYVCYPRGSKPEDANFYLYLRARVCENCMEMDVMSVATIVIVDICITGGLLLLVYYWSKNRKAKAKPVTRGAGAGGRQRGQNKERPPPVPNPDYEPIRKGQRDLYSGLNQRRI

T1: Cynomolgus Monkey CD3 epsilon protein (Cynomolgus monkey) (UniProt Q95LI5)
T1 sequence (looked up): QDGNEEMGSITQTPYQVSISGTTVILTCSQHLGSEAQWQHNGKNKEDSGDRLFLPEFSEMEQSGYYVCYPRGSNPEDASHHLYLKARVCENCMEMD


Legend:
[1] = biological target: T1, Cynomolgus Monkey CD3 epsilon protein (Cynomolgus monkey); experiment: ELISA, antigen coated on plate
[2] = biological target: human CD3 expressed on cells (Jurkat cells; human CD4 T cells) (human) (UniProt P07766); experiment: flow cytometry on Jurkat cells
[3] = biological target: human CD3 expressed on cells (Jurkat cells; human CD4 T cells) (human) (UniProt P07766); experiment: flow cytometry on human CD4 T cells

Binder | binding [1] | binding [2] | binding [3]
WBP331_2.488.33 (antibody, V domains shown) VH: QVQLQQSGPELVKPGTSVKISCKASGFSFTNYYIHWVKQRPGQGPEWIGWIFPGTVNTKYNEKFKGKATLTADTSSNTAFMQLSSLTSADSAVYFCARDSVGIYYFDFWGLGTTLTVSS VL: DIVMSQSPSSLAVSAGEKVTVSCKSSQSLLNNRTRKNYLAWYQQKPGQSPKLLIYWASTRESGVPDRFTGSGSGTDFTLTISSVQAEDLAVYYCTQSFILRTFGGGTKLEIK | binds | binds | –
WBP3311_2.615.8 (antibody, V domains shown) VH: QVQLQQSGPELVKPGTSMKISCKASGYSFTDFYTHWVRQRPGQGLEWIGWIFPGSDNIKYNEKFKGKATLTADTSSSTAYMQLSSLTSEDSAVYFCARDSVSVYYFDYWGQGTTLTVSS VL: DIVMSQSPSSLAVTAGEKVTMSCKSSQSLLNIRTRKNYLAWYQQKPGQSPKLLIYWASTRDSGVPDRFTGSGSGTDFTLTISSVQAEDLAVYYCTQSFILRTFGGGTKLEIK | binds | binds | –
WBP3311_2.482.5 (antibody, V domains shown) VH: QVQLQQSGPELVKPGSSVKISCKPSGYTFTTYYIHWVKQRPGQGLEWIGWIFPGSDNIKYNENFKDKATLTADTSSSTAYMQLSSLTSEDSAVYFCARDSVSRYYFDYWGQGTILTVSS VL: DIVMSQSPSSLAVSAGEKVTMSCKSSQSLVNDRTRKNYLAWYQQKPGLSPKLLIYWASTRESGVPDRFTGSGSGTDFTLTISSVQAEDLAVYYCAQSFILRTFGGGTKLEIK | binds | binds | –
WBP3311_2.166.48-z1-uIgG1K (antibody, V domains shown) VH: QVQLVQSGAEVKKPGSSVKVSCKASGYSFTTYYIHWVRQAPGQGLEWMGWIFPGNDNIKYSEKFKGRVTITADKSTSTAYMELSSLRSEDTAVYYCAIDSVSIYYFDYWGQGTLVTVSS VL: DIVMTQSPDSLAVSLGERATINCKSSQSLLNSRTRKNYLAWYQQKPGQPPKLLIYWASTRKSGVPDRFSGSGSGTDFTLTISSLQAEDVAVYYCTQSFILRTFGGGTKVEIK | binds | binds | binds

Continued, values first:

binding [1] | binding [2] | binding [3] | Binder
binds | binds | – | WBP3311_2.166.48 (antibody, IgG2a, V domains shown) VH: QVQLQQSGPELVKPGASVKIACKASGYSFTTYYIHWVKQRPGQGLEWIGWIFPGNDNIKYSEKFKGKATLTADTSSSTAYMQLSSLTSEDSAVYFCAIDSVSIYYFDYWGQGTTLTVSS VL: DIVMSQSPSSLAVSAGEKVTMSCKSSQSLLNSRTRKNYLAWYQQKPGQSPKLLIYWASTRKSGVPDRFTGSGSGTDFTLTINSVQAEDLAVYYCTQSFILRTFGGGTKLEIK
binds | binds | – | WBP3311_2.400.5 (antibody, V domains shown) VH: QVQLQQSGPELVNPGASVKISCKASGYSFTNYYLHWVKQRPGQGLEWIGWIFPESDNTKYNEKLKGKATLTADTSSDTAYMHLSSLTFEDSAVYFCARDSVGNYFFDFWGQGTTLTVSS VL: DIVMSQSPSSLAVSAGEKVTMRCKSSQSLVNNRTRKNYLAWYQQKPGQPPKLLIYWASTRESGVPDRFTGSGSGTDFTLTISSVQAEDLAVYYCAQSFILRTFGGGTKLEIK
